Source: the supplement of paper PMC4604168 (melanoma cell lines)
Some of the results follow. Single values are uncertain, as repeats are few or missing.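 The apoptosis fraction was the count of cleaved-PARP antibody-stained nuclei relative to all DNA-stained nuclei, imaged in 1,536-well plates. Screening doses were set so most cells survived, and baseline and induced cleaved-PARP levels vary greatly across cell lines.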

Key:
Experiment in all cases: cleaved PARP positive nuclei fraction relative to DMSO control; melanoma cells; higher = more apoptosis
Conditions in all cases: library dose: low library concentration; 72 h
MZ2-MEL = system: MZ2-MEL
MeWo = system: MeWo
RPMI7951 = system: RPMI7951
RVH-421 = system: RVH-421
SkMel28 = system: SkMel28
SkMel2 = system: SkMel2
SkMel30 = system: SkMel30
UACC62 = system: UACC62
WM115 = system: WM115
WM1716 = system: WM1716
WM1745 = system: WM1745
WM3526 = system: WM3526
WM3619 = system: WM3619
WM451Lu = system: WM451Lu
SkMel5 = system: SkMel5
UACC257 = system: UACC257

| Compound | cleaved PARP positive nuclei fraction (MZ2-MEL) [%] | cleaved PARP positive nuclei fraction (MeWo) [%] | cleaved PARP positive nuclei fraction (RPMI7951) [%] | cleaved PARP positive nuclei fraction (RVH-421) [%] | cleaved PARP positive nuclei fraction (SkMel28) [%] | cleaved PARP positive nuclei fraction (SkMel2) [%] | cleaved PARP positive nuclei fraction (SkMel30) [%] | cleaved PARP positive nuclei fraction (UACC62) [%] | cleaved PARP positive nuclei fraction (WM115) [%] | cleaved PARP positive nuclei fraction (WM1716) [%] | cleaved PARP positive nuclei fraction (WM1745) [%] | cleaved PARP positive nuclei fraction (WM3526) [%] | cleaved PARP positive nuclei fraction (WM3619) [%] | cleaved PARP positive nuclei fraction (WM451Lu) [%] | cleaved PARP positive nuclei fraction (SkMel5) [%] | cleaved PARP positive nuclei fraction (UACC257) [%] |
| --- | --- | --- | --- | --- | --- | --- | --- | --- | --- | --- | --- | --- | --- | --- | --- | --- |
| Nc1ncn([C@H]2C[C@H](O)[C@@H](CO)O2)c(=O)n1 [decitabine] + Cn1nnc2c(C(N)=O)ncn2c1=O [temozolomide] (first compound 0.1 µM, partner dose 2 µM) | 61.3 | 162 | 124 | 53.6 | 88.1 | 82.6 | 67.9 | 107 | 55.6 | 76.9 | 76.2 | 129 | 134 | 368 | – | – |
| CO[C@H]1C[C@@H]2CC[C@@H](C)[C@@](O)(O2)C(=O)C(=O)N2CCCC[C@H]2C(=O)O[C@H]([C@H](C)C[C@@H]2CC[C@@H](OCCO)[C@H](OC)C2)CC(=O)[C@H](C)/C=C(\C)[C@@H](O)[C@@H](OC)C(=O)[C@H](C)C[C@H](C)/C=C/C=C/C=C/1C [everolimus] + O=S(=O)(c1ccccc1)N(CC(F)(F)F)c1ccc(C(O)(C(F)(F)F)C(F)(F)F)cc1 [T0901317] (first compound 0.02 µM, partner dose 1.4 µM) | 133 | 68.7 | 104 | 130 | 216 | – | 184 | 195 | 98.4 | 73.1 | 102 | 114 | 152 | 356 | 86.5 | 144 |
| CO[C@H]1C[C@@H]2CC[C@@H](C)[C@@](O)(O2)C(=O)C(=O)N2CCCC[C@H]2C(=O)O[C@H]([C@H](C)C[C@@H]2CC[C@@H](OCCO)[C@H](OC)C2)CC(=O)[C@H](C)/C=C(\C)[C@@H](O)[C@@H](OC)C(=O)[C@H](C)C[C@H](C)/C=C/C=C/C=C/1C [everolimus] + COC(=O)c1sccc1S(=O)(=O)Nc1ccc(Nc2ccccc2)cc1OC [GSK0660] (first compound 0.02 µM, partner dose 1 µM) | 89.7 | 54.2 | 152 | 108 | 282 | – | 261 | 370 | 61.4 | 22.1 | 117 | 273 | 122 | 296 | 73.9 | 203 |
| Nc1nc(F)nc2c1ncn2[C@@H]1O[C@H](CO)[C@@H](O)[C@@H]1O [fludarabine] + CC(=O)c1c(C)c2cnc(Nc3ccc(N4CCNCC4)cn3)nc2n(C2CCCC2)c1=O [palbociclib] (first compound 0.2 µM, partner dose 0.04 µM) | 126 | 495 | 170 | 55.2 | 116 | 889 | 692 | 52.4 | 244 | 66.8 | 126 | 813 | 144 | 255 | – | – |
| O=C(O)[C@@H]1[O][Sb](=[O])([O][Sb]2(=[O])[O][C@H]([C@H](O)CO)[C@H](O)[C@H](C(=O)O)[O]2)[O][C@H]([C@H](O)CO)[C@@H]1O (stereo partly specified) [stibogluconate] + OCc1c[nH]c2ccccc12 [Indole-3-carbinol] (first compound 2 µM, partner dose 0.8 µM) | 328 | 87.3 | 85 | 111 | 85.5 | 128 | 91.9 | 114 | 54.6 | 64.1 | 97.3 | 96.9 | 92.7 | 97.8 | – | – |
| Cn1c(=O)n(-c2ccc(C(C)(C)C#N)cc2)c2c3cc(-c4cnc5ccccc5c4)ccc3ncc21 + COc1ccc(Cl)c(Nc2nc3ccccc3nc2NS(=O)(=O)c2cccc(NC(=O)C(C)(C)N)c2)c1 [XL147] (first compound 0.004 µM, partner dose 0.8 µM) | 102 | 68.7 | 70.3 | 114 | 104 | 179 | 208 | 144 | 84.9 | 121 | 106 | 83.6 | 92.9 | 29.9 | – | – |
| C[C@@H](Oc1cc(-c2cnn(C3CCNCC3)c2)cnc1N)c1c(Cl)ccc(F)c1Cl [Crizotinib] + O=C(O)c1ccc2c(c1)nc(Nc1cccc(Cl)c1)c1ccncc12 [CX4945] (first compound 0.2 µM, partner dose 0.4 µM) | 190 | 111 | 130 | 40.5 | 183 | 117 | 66.6 | 54.2 | 270 | 70.6 | 106 | 148 | 161 | 73.8 | – | – |
| CO[C@H]1C[C@@H]2CC[C@@H](C)[C@@](O)(O2)C(=O)C(=O)N2CCCC[C@H]2C(=O)O[C@H]([C@H](C)C[C@@H]2CC[C@@H](OCCO)[C@H](OC)C2)CC(=O)[C@H](C)/C=C(\C)[C@@H](O)[C@@H](OC)C(=O)[C@H](C)C[C@H](C)/C=C/C=C/C=C/1C [everolimus] + Cc1nc(Nc2ncc(C(=O)Nc3c(C)cccc3Cl)s2)cc(N2CCN(CCO)CC2)n1 [dasatanib] (first compound 0.02 µM, partner dose 0.004 µM) | 33.3 | 137 | 152 | 310 | 141 | – | 109 | 398 | 178 | 101 | 131 | 274 | 130 | 108 | – | – |
| CO[C@H]1C[C@@H]2CC[C@@H](C)[C@@](O)(O2)C(=O)C(=O)N2CCCC[C@H]2C(=O)O[C@H]([C@H](C)C[C@@H]2CC[C@@H](OCCO)[C@H](OC)C2)CC(=O)[C@H](C)/C=C(\C)[C@@H](O)[C@@H](OC)C(=O)[C@H](C)C[C@H](C)/C=C/C=C/C=C/1C [everolimus] + NCC(=O)Nc1ccc(-n2nc(C(F)(F)F)cc2-c2ccc3c(ccc4ccccc43)c2)cc1 [OSU03012] (first compound 0.02 µM, partner dose 1 µM) | 99.5 | 178 | 33.9 | 129 | 93.4 | – | 203 | 142 | 92.7 | 183 | 97.8 | 450 | 61.5 | 92.1 | 55.1 | 95.2 |
| CO[C@H]1C[C@@H]2CC[C@@H](C)[C@@](O)(O2)C(=O)C(=O)N2CCCC[C@H]2C(=O)O[C@H]([C@H](C)C[C@@H]2CC[C@@H](OCCO)[C@H](OC)C2)CC(=O)[C@H](C)/C=C(\C)[C@@H](O)[C@@H](OC)C(=O)[C@H](C)C[C@H](C)/C=C/C=C/C=C/1C [everolimus] + COc1cc(Nc2ncc(F)c(Nc3ccc4c(n3)NC(=O)C(C)(C)O4)n2)cc(OC)c1OC [Tamatinib] (first compound 0.02 µM, partner dose 0.4 µM) | 210 | 105 | 86.7 | 70.6 | 381 | – | 97.5 | 288 | 317 | 162 | 135 | 78.3 | 99.3 | 22.4 | 127 | 215 |
| CO[C@H]1C[C@@H]2CC[C@@H](C)[C@@](O)(O2)C(=O)C(=O)N2CCCC[C@H]2C(=O)O[C@H]([C@H](C)C[C@@H]2CC[C@@H](OCCO)[C@H](OC)C2)CC(=O)[C@H](C)/C=C(\C)[C@@H](O)[C@@H](OC)C(=O)[C@H](C)C[C@H](C)/C=C/C=C/C=C/1C [everolimus] + CCN(CC)CCCCNc1ncc2cc(-c3cc(OC)cc(OC)c3)c(NC(=O)NC(C)(C)C)nc2n1 [PD173074] (first compound 0.02 µM, partner dose 0.1 µM) | 104 | 109 | 146 | 100 | 714 | – | 32.6 | 246 | 165 | 66.3 | 93.1 | 102 | 247 | 62.1 | 346 | 221 |
| CO[C@H]1C[C@@H]2CC[C@@H](C)[C@@](O)(O2)C(=O)C(=O)N2CCCC[C@H]2C(=O)O[C@H]([C@H](C)C[C@@H]2CC[C@@H](OCCO)[C@H](OC)C2)CC(=O)[C@H](C)/C=C(\C)[C@@H](O)[C@@H](OC)C(=O)[C@H](C)C[C@H](C)/C=C/C=C/C=C/1C [everolimus] + CC(C)(C)c1cnc(CSc2cnc(NC(=O)C3CCNCC3)s2)o1 [SNS-032] (first compound 0.02 µM, partner dose 0.01 µM) | 118 | 74.5 | 62.8 | 37.5 | 43.1 | – | 106 | 399 | 342 | 118 | 106 | 178 | 127 | 185 | 46.5 | 303 |
| CO[C@H]1C[C@@H]2CC[C@@H](C)[C@@](O)(O2)C(=O)C(=O)N2CCCC[C@H]2C(=O)O[C@H]([C@H](C)C[C@@H]2CC[C@@H](OCCO)[C@H](OC)C2)CC(=O)[C@H](C)/C=C(\C)[C@@H](O)[C@@H](OC)C(=O)[C@H](C)C[C@H](C)/C=C/C=C/C=C/1C [everolimus] + C[C@@H]1CCN(C(=O)CC#N)C[C@@H]1N(C)c1ncnc2[nH]ccc12 [CP690550] (first compound 0.02 µM, partner dose 1 µM) | 130 | 58.1 | 56.1 | 46.1 | 174 | – | 120 | 186 | 180 | 44 | 96.9 | 146 | 116 | 194 | 59.8 | 220 |
| CO[C@H]1C[C@@H]2CC[C@@H](C)[C@@](O)(O2)C(=O)C(=O)N2CCCC[C@H]2C(=O)O[C@H]([C@H](C)C[C@@H]2CC[C@@H](OCCO)[C@H](OC)C2)CC(=O)[C@H](C)/C=C(\C)[C@@H](O)[C@@H](OC)C(=O)[C@H](C)C[C@H](C)/C=C/C=C/C=C/1C [everolimus] + Nc1ncn([C@H]2C[C@H](O)[C@@H](CO)O2)c(=O)n1 [decitabine] (first compound 0.02 µM, partner dose 0.1 µM) | 101 | 121 | 58.3 | 343 | 217 | – | 46.6 | 192 | 133 | 65.1 | 40.7 | 57.5 | 151 | 98.2 | – | – |
| CO[C@H]1C[C@@H]2CC[C@@H](C)[C@@](O)(O2)C(=O)C(=O)N2CCCC[C@H]2C(=O)O[C@H]([C@H](C)C[C@@H]2CC[C@@H](OCCO)[C@H](OC)C2)CC(=O)[C@H](C)/C=C(\C)[C@@H](O)[C@@H](OC)C(=O)[C@H](C)C[C@H](C)/C=C/C=C/C=C/1C [everolimus] + CO[C@@H]1[C@H](N(C)C(=O)c2ccccc2)C[C@H]2O[C@]1(C)n1c3ccccc3c3c4c(c5c6ccccc6n2c5c31)C(=O)NC4 [Midostaurin] (first compound 0.02 µM, partner dose 0.08 µM) | 172 | 52.7 | 139 | 106 | 191 | – | 100 | 244 | 556 | 374 | 104 | 67.4 | 114 | 55 | 128 | 77.6 |

3 entries from above, with tabs.
Compound	cleaved PARP positive nuclei fraction (MZ2-MEL) [%]	cleaved PARP positive nuclei fraction (MeWo) [%]	cleaved PARP positive nuclei fraction (RPMI7951) [%]	cleaved PARP positive nuclei fraction (RVH-421) [%]	cleaved PARP positive nuclei fraction (SkMel28) [%]	cleaved PARP positive nuclei fraction (SkMel2) [%]	cleaved PARP positive nuclei fraction (SkMel30) [%]	cleaved PARP positive nuclei fraction (UACC62) [%]	cleaved PARP positive nuclei fraction (WM115) [%]	cleaved PARP positive nuclei fraction (WM1716) [%]	cleaved PARP positive nuclei fraction (WM1745) [%]	cleaved PARP positive nuclei fraction (WM3526) [%]	cleaved PARP positive nuclei fraction (WM3619) [%]	cleaved PARP positive nuclei fraction (WM451Lu) [%]	cleaved PARP positive nuclei fraction (SkMel5) [%]	cleaved PARP positive nuclei fraction (UACC257) [%]
CO[C@H]1C[C@@H]2CC[C@@H](C)[C@@](O)(O2)C(=O)C(=O)N2CCCC[C@H]2C(=O)O[C@H]([C@H](C)C[C@@H]2CC[C@@H](OCCO)[C@H](OC)C2)CC(=O)[C@H](C)/C=C(\C)[C@@H](O)[C@@H](OC)C(=O)[C@H](C)C[C@H](C)/C=C/C=C/C=C/1C [everolimus] + C[C@@H]1CCN(C(=O)CC#N)C[C@@H]1N(C)c1ncnc2[nH]ccc12 [CP690550] (first compound 0.02 µM, partner dose 1 µM)	130	58.1	56.1	46.1	174	–	120	186	180	44	96.9	146	116	194	59.8	220
CO[C@H]1C[C@@H]2CC[C@@H](C)[C@@](O)(O2)C(=O)C(=O)N2CCCC[C@H]2C(=O)O[C@H]([C@H](C)C[C@@H]2CC[C@@H](OCCO)[C@H](OC)C2)CC(=O)[C@H](C)/C=C(\C)[C@@H](O)[C@@H](OC)C(=O)[C@H](C)C[C@H](C)/C=C/C=C/C=C/1C [everolimus] + Nc1ncn([C@H]2C[C@H](O)[C@@H](CO)O2)c(=O)n1 [decitabine] (first compound 0.02 µM, partner dose 0.1 µM)	101	121	58.3	343	217	–	46.6	192	133	65.1	40.7	57.5	151	98.2	–	–
CO[C@H]1C[C@@H]2CC[C@@H](C)[C@@](O)(O2)C(=O)C(=O)N2CCCC[C@H]2C(=O)O[C@H]([C@H](C)C[C@@H]2CC[C@@H](OCCO)[C@H](OC)C2)CC(=O)[C@H](C)/C=C(\C)[C@@H](O)[C@@H](OC)C(=O)[C@H](C)C[C@H](C)/C=C/C=C/C=C/1C [everolimus] + CO[C@@H]1[C@H](N(C)C(=O)c2ccccc2)C[C@H]2O[C@]1(C)n1c3ccccc3c3c4c(c5c6ccccc6n2c5c31)C(=O)NC4 [Midostaurin] (first compound 0.02 µM, partner dose 0.08 µM)	172	52.7	139	106	191	–	100	244	556	374	104	67.4	114	55	128	77.6
